Record: PubChem BioAssay AID1224828 (NIAID, 2016)

Test: 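Regulators linking TLR4 signalling to p65 nuclear translocation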 (primary screen)
Cells: mouse RAW264.7 G9 macrophage reporter cells (GFP-p65, Tnf promoter-mCherry)
Knock-down reagent: siRNA pool against mouse genes, 100 nM
Duration: 2 days siRNA transfection, then 40 min LPS before fixation
Conditions: LPS (Salmonella minnesota R595) at 10 ng/ml
Read-out: 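Imaged p65 nuclear translocation ratio, normalised to the plate median, converted to robust z-scores and averaged across two replicates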
Scale: p65 translocation robust z-score: higher = more nuclear NF-kappaB p65 after LPS than the plate median; nuclear/cytoplasmic p65 ratio: higher = more nuclear NF-kappaB p65
Rule for the call: 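Active if robust z is above 3.3 (negative regulators) or below -1.56, the Tlr4 control median (positive regulators); activity score 50 or more; control wells not called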
Calls: active = hit (p65 shift raised or lowered); inactive = no clear change
In all, the deposit lists about 17,000 reagents; shown is an unselected part. 762 of them (4.5%) count as active. 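Active calls include both raised and lowered p65 entry, mostly lowered; wells with fewer than 50 cells lack a z-score.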 Raw values are not corrected between plates. A number with no mark means an inactive call. No sequences are given here.

gene | p65 translocation robust z-score | nuclear/cytoplasmic p65 ratio, rep 1 | nuclear/cytoplasmic p65 ratio, rep 2 | low cell count flag
Mcm9 (GeneID 71567) | – | 1.21 | 1.26 | fewer than 50 cells per well; well left out of scoring
1700102P08Rik (GeneID 112418) | – | 1.24 | 1.47 | fewer than 50 cells per well; well left out of scoring
Hacd1 (GeneID 30963) | -0.19 | 1.52 | 1.34 | enough cells to score
Gtf2h1 (GeneID 14884) | 1.49 | 2.09 | 1.44 | enough cells to score
Cfap410 (GeneID 67884) | 0.27 | 1.39 | 1.34 | enough cells to score
Serpina3n (GeneID 20716) | 0.37 | 1.5 | 1.71 | enough cells to score
5430414B19Rik (GeneID 73846) | -1.62 (active) | 1.18 | 1.22 | enough cells to score
BC106179 (GeneID 320099) | -0.03 | 1.61 | 1.8 | enough cells to score
Bace2 (GeneID 56175) | 0.98 | 1.68 | 2.06 | enough cells to score
Rlbp1 (GeneID 19771) | – | 1.2 | 1.69 | fewer than 50 cells per well; well left out of scoring
Ceacam14 (GeneID 67084) | 0.31 | 1.71 | 1.76 | enough cells to score
Mc1r (GeneID 17199) | 0.79 | 1.68 | 1.64 | enough cells to score
Mcm10 (GeneID 70024) | -1.48 | 1.49 | 1.33 | enough cells to score
Gpr85 (GeneID 64450) | -0.16 | 1.5 | 1.54 | enough cells to score
Snx20 (GeneID 71607) | -2.21 (active) | 1.13 | 1.23 | enough cells to score
Nme7 (GeneID 171567) | 0.19 | 1.62 | 1.47 | enough cells to score
Fam234a (GeneID 106581) | -1.32 | 1.43 | 1.46 | enough cells to score
Prdx5 (GeneID 54683) | 0.36 | 1.42 | 1.26 | enough cells to score
Spire1 (GeneID 68166) | -0.24 | 1.33 | 1.25 | enough cells to score
Cd46 (GeneID 17221) | 0.47 | 1.5 | 1.47 | enough cells to score
Kirrel3 (GeneID 67703) | -2 (active) | 1.25 | 1.1 | enough cells to score
Taf1 (GeneID 270627) | -0.91 | 1.59 | 1.23 | enough cells to score
Ndufa3 (GeneID 66091) | 0.09 | 1.81 | 1.6 | enough cells to score
Or4g16 (GeneID 258388) | 0.54 | 1.69 | 1.5 | enough cells to score
Spin4 (GeneID 270624) | 0.76 | 1.59 | 1.59 | enough cells to score
Vmn2r42 (GeneID 22310) | 0.17 | 1.36 | 1.29 | enough cells to score

Entries listed so far with an active call, once more:
gene | p65 translocation robust z-score | nuclear/cytoplasmic p65 ratio, rep 1 | nuclear/cytoplasmic p65 ratio, rep 2 | low cell count flag
5430414B19Rik (GeneID 73846) | -1.62 (active) | 1.18 | 1.22 | enough cells to score
Snx20 (GeneID 71607) | -2.21 (active) | 1.13 | 1.23 | enough cells to score
Kirrel3 (GeneID 67703) | -2 (active) | 1.25 | 1.1 | enough cells to score

Additional entries:
gene | p65 translocation robust z-score | nuclear/cytoplasmic p65 ratio, rep 1 | nuclear/cytoplasmic p65 ratio, rep 2 | low cell count flag
Or4a68 (GeneID 258804) | – | 1.65 | 1.6 | fewer than 50 cells per well; well left out of scoring
Sftpc (GeneID 20389) | 0.04 | 1.52 | 1.6 | enough cells to score
Fbxo44 (GeneID 230903) | -0.03 | 1.56 | 1.49 | enough cells to score
Gcnt2 (GeneID 14538) | 0.04 | 1.4 | 1.42 | enough cells to score
H2-T23 (GeneID 15040) | 0.02 | 1.45 | 1.37 | enough cells to score
Crb3 (GeneID 224912) | -0.1 | 1.62 | 1.71 | enough cells to score
Otx2 (GeneID 18424) | – | 1.48 | 1.24 | fewer than 50 cells per well; well left out of scoring
Txnrd3 (GeneID 232223) | -0.9 | 1.41 | 1.36 | enough cells to score
Cyp19a1 (GeneID 13075) | 1.32 | 1.73 | 1.48 | enough cells to score
Hoxc13 (GeneID 15422) | 0.31 | 1.45 | 1.44 | enough cells to score
Nphp4 (GeneID 260305) | 0.01 | 1.46 | 1.3 | enough cells to score
Myo1c (GeneID 17913) | 0.2 | 1.86 | 1.58 | enough cells to score
Tbl2 (GeneID 27368) | – | 1.25 | 1.09 | fewer than 50 cells per well; well left out of scoring
Lce3c (GeneID 94060) | -2.15 (active) | 1.14 | 0.985 | enough cells to score
